This passage reports AC50 and cell number change results from PubChem BioAssay AID2685 (National Center for Advancing Translational Sciences (NCATS), 2010).

The nature of the test: qHTS Assay for Lipid Storage Modulators in Drosophila S3 Cells.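 On cell number change: cells counted by Cell Tracker Red CMTPX staining in the red channel.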 As to conditions: BODIPY lipid droplet fluorescence, 18-24 h; for cell number change: measured here: cell count max response, cells fed with added oleic acid. The method in brief: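 Laser-scanning cytometry quantifies lipid droplet accumulation (500–530 nm total intensity; droplet/cell object ratio) in oleic acid-fed (400 uM added) Drosophila S3 cells treated with a concentration series. 20 uM Triacsin C defined 100% inhibition.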

Setting [1] is: measured here: lipid fluorescence (Fed channel) AC50, cells fed with added oleic acid.
[2] abbreviates: measured here: cell number channel AC50, cells fed with added oleic acid.

The other results are listed elsewhere or left out. The main result of the screen is listed elsewhere. These columns were measured beside it and carry no call. The list favours compounds with an active or inconclusive main result. The note in brackets gives the kind of curve behind each potency; many fits are weak.

Consider `C=CCOc1ccc(/C=N/N2C(=O)C(CC(=O)Nc3ccc(F)cc3F)SC2=NC)cc1` (stereo unspecified), for which the AC50 under setting [1] was 16400 nM [falling, partial curve]. For the compound `Cc1ccccc1OCc1nc2ccc(S(=O)(=O)N3CCOCC3)cc2[nH]1`, the cell number change is 21%. In addition, the AC50 under setting [2] is 3260 nM [rising, partial curve].

In the case of `Cc1nc2nc[nH]n2c(=O)c1NS(=O)(=O)c1ccc(F)cc1`, the AC50 runs as follows: under setting [2], 517 nM [falling, single point]; under setting [1], 580 nM [falling, full curve]. For `CCOC(=O)C1=C(c2ccccc2)NC(N)=NC1c1ccc(OCc2ccc(Cl)cc2)c(OC)c1` (stereo unspecified), the cell number change was -64.2%. Besides, under setting [2], the concentration at half-maximal activity (AC50) was 23100 nM [falling, single point]. For `Cc1ccc2nc(SCc3nc4c(cnn4-c4ccccc4)c(=O)[nH]3)[nH]c2c1`, the cell number change was -53.7%. Also, the AC50 under setting [2] is 14600 nM [falling, single point].

`COc1ccc(N2CCN(c3oc(COc4ccccc4Cl)nc3C#N)CC2)cc1`: the cell number change was -1.72%. Moreover, the concentration at half-maximal activity (AC50) under setting [1] was 326 nM [falling, full curve]. For `Cc1ccc(S(=O)(=O)NCCC(=O)NCc2ccc3c(c2)OCO3)cc1C`, the cell number change was determined as 85.7%. The AC50 under setting [2] was 9200 nM [rising, partial curve]. For `Cc1ccc(S(=O)(=O)N2CCN(Cc3ccco3)CC2)cc1C`, the cell number change was -22.8%. Also, the AC50 under setting [1] was 29100 nM [rising, single point]. Consider `Cn1c(N)nc2ccccc2c1=O`, for which the cell number change is -47.5%.

With `O=C(c1cnccn1)N(c1ccccc1)C1(C(=O)NC2CCCCC2)CCCCC1`, the cell number change was -23.4%. The AC50 under setting [1] is 580 nM [falling, partial curve, poor fit]. Turning to `Oc1ccc(CNc2ccccc2F)c2cccnc12`, the cell number change is -25.6%.

Take `CCn1c(=O)c(=O)[nH]c2cc(C(=O)Nc3ccc(S(=O)(=O)N4CCCC4)cc3)ccc21`: the cell number change was -42%. Further, the AC50 under setting [2] is 4110 nM [falling, full curve]. In addition, the AC50 under setting [1] is 1300 nM [falling, full curve]. On to `COc1ccc(-n2c(=S)[nH]c3cc(C(=O)Nc4ccc(C)c(F)c4)ccc3c2=O)c(OC)c1`, for which the cell number change is 31.5%. Besides, under setting [1], the AC50 is 4110 nM [falling, full curve]. `CN1CCN(C(=O)c2cccc(S(=O)(=O)N3CCCCC3)c2)CC1`: the cell number change was -5.82%. Also, the half-maximal activity concentration (AC50) under setting [1] was 164 nM [falling, full curve, poor fit]. As to `Cc1ccnc(NC(=O)CCC(=O)N(CC(=O)NC(C)(C)C)Cc2ccc3c(c2)OCO3)c1`, the AC50 under setting [1] was 164 nM [falling, full curve]. Turning to `O=[N+]([O-])c1ccc(OC/C=C2\Oc3ccc([N+](=O)[O-])cc3C2N2CCOCC2)cc1` (stereo unspecified), the AC50 under setting [2] is 146 nM [rising, full curve, poor fit]. As for `CCC(C)n1c(C)nc2c(c1=O)c1nc3ccccc3nc1n2-c1ccc2c(c1)OCCO2` (stereo unspecified), the cell number change was 7.51%. Further, the AC50 under setting [1] is 1840 nM [rising, partial curve, poor fit]. As for `COc1ccc(NC(=O)CSc2nnc3ccc(-c4cccnc4)nn23)cc1`, under setting [1], the AC50 is 164 nM [rising, full curve, poor fit]. As to `COCCSc1ccccc1C(=O)Nc1ccncc1`, the cell number change stood at 10.3%. Under setting [1], the concentration at half-maximal activity (AC50) is 2910 nM [rising, partial curve]. `CCN(Cc1ccc(N(C)C)cc1)C(C)C(=O)Nc1ccc(S(=O)(=O)N2CCCC2)cc1` (stereo unspecified): the cell number change was -32%. In addition, the half-maximal activity concentration (AC50) under setting [1] was 14600 nM [falling, partial curve, poor fit]. Turning to `CCOC(=O)Cc1csc(N/C(=N/S(=O)(=O)c2ccc(Cl)cc2)c2ccccc2)n1`, the cell number change was determined as 50%. Further, the concentration at half-maximal activity (AC50) under setting [2] is 29100 nM [rising, single point]. Regarding `C#CCSc1nc2ccccc2n1C(=O)c1ccc(S(=O)(=O)N2CCCCC2)cc1`, under setting [1], the AC50 was 29100 nM [falling, single point].

Turning to `CCOc1cc(CNn2nnnc2N)cc(Cl)c1OCC(=O)NC(C)(C)C`, the cell number change worked out at 5.44%. Besides, the AC50 under setting [2] is 731 nM [falling, single point]. With `O=c1oc(-c2ccc(Br)o2)nc2ccccc12`, the cell number change is -12.8%. Moreover, the AC50 under setting [2] is 4.61 nM [falling, full curve, poor fit]. Consider `O=C(NC(=O)c1ccccc1)OCC(F)(F)F`, for which the cell number change was -24.8%. Under setting [2], the concentration at half-maximal activity (AC50) is 184 nM [falling, full curve, poor fit]. The AC50 under setting [1] was 3660 nM [falling, full curve]. For the compound `CCO[C@H]1OC(C(=O)N2CCN(Cc3ccc4c(c3)OCO4)CC2)=C[C@@H](c2ccc(Br)cc2)[C@@H]1CCCO`, the cell number change was -24.4%. In addition, the AC50 under setting [1] was 20600 nM [falling, single point]. As to `O=C(NC1CCCC1)c1sc(=S)n2c1[nH]c(=O)c1ccccc12`, the cell number change is -12.2%. Moreover, under setting [1], the concentration at half-maximal activity (AC50) was 5.17 nM [falling, full curve, poor fit]. In the case of `CN(C)S(=O)(=O)N(CC(=O)Nc1cccc(F)c1)c1ccccc1`, the cell number change was -10.2%.

`COc1ccc(NC(=O)C2C(=O)NC3(C)CC2c2ccccc2O3)cc1` (stereo unspecified): the cell number change was -2.29%. Also, the AC50 under setting [2] is 5.8 nM [falling, full curve, poor fit]. For the same compound, under setting [1], the AC50 is 5.8 nM [falling, full curve, poor fit]. On to `CCOc1ccc2nc(NCCNC(=O)C3CC3)c(C)cc2c1`, for which the cell number change was 36.1%. For the same compound, the AC50 under setting [2] was 1300 nM [rising, full curve]. The AC50 under setting [1] is 580 nM [rising, partial curve]. Take `CCOC(=O)c1c(C)[nH]c(C)c1S(=O)(=O)N(C)CC(=O)N1CCN(c2ccc(OC)cc2)CC1`: the cell number change was -21.1%. The AC50 under setting [1] is 29100 nM [falling, single point]. In the case of `COc1cccc2cc(C(=O)N3CCN(c4ccccc4F)CC3)c(=O)oc12`, the cell number change was 121%. For the same compound, the half-maximal activity concentration (AC50) under setting [2] is 29100 nM [rising, single point]. For `COc1ccc(C2SCC(=O)N2CCc2ccc(OC)c(OC)c2)cc1` (stereo unspecified), the cell number change was -49.5%. For the same compound, the AC50 under setting [2] was 20600 nM [falling, single point]. For the same compound, under setting [1], the AC50 is 32600 nM [falling, single point]. For `NC(CO)C(=O)NNCc1ccc(O)c(O)c1O` (stereo unspecified), the cell number change was 2.71%. In addition, the AC50 under setting [1] was 820 nM [rising, full curve, poor fit]. For the compound `CCn1nnc2cc(C(=O)NCCc3ccccc3F)ccc21`, the cell number change is 25%. Also, the AC50 under setting [1] is 29100 nM [falling, single point]. Turning to `Cc1ccc(C(CC(=O)O)Nc2nc(N3CCCCC3)nc(N3CCCCC3)n2)cc1` (stereo unspecified), the cell number change was -30.8%. In addition, under setting [2], the AC50 is 32600 nM [falling, single point]. Further, the AC50 under setting [1] was 731 nM [rising, full curve]. Turning to `CC(=O)c1c[nH]c(C(=O)NC2CCCCCC2)c1`, the AC50 under setting [1] is 820 nM [rising, full curve, poor fit]. As for `CCOC(=O)c1c(-c2ccccc2)csc1NC(=S)NC`, the cell number change is -50.4%. In addition, under setting [2], the AC50 was 6510 nM [falling, partial curve, poor fit]. The AC50 under setting [1] was 461 nM [falling, full curve, poor fit].

In the case of `N#Cc1cc2sc3nnc(-c4ccncc4)n3c2cc1C#N`, the cell number change was -12%. In addition, the AC50 under setting [1] is 29100 nM [falling, single point]. Take `Cc1nn(C)c(C)c1NC(=O)Nc1cccc(C(F)(F)F)c1`: the cell number change is -13.6%. Further, under setting [1], the AC50 was 2910 nM [rising, partial curve, poor fit].

On to `CCCN1C(=S)c2ccccc2C1c1ccccc1` (stereo unspecified), for which the cell number change is -19%. Further, under setting [1], the half-maximal activity concentration (AC50) was 6510 nM [falling, partial curve]. Consider `COc1cccc(C(=O)Nc2cc(C)nn2-c2ccccc2)c1OC`, for which the cell number change was 5.13%. Further, under setting [1], the AC50 is 5170 nM [falling, single point]. Consider `CCOc1ccc(C(=O)Nc2cccc3ncccc23)cc1Cl`, for which the cell number change stood at 18.8%. The AC50 under setting [1] was 580 nM [rising, single point].

Consider `COc1cccc(OC)c1C(=O)NC(=S)Nc1ccc2c(c1)Cc1ccccc1-2`, for which the cell number change is -15.3%. Also, under setting [2], the AC50 was 6510 nM [falling, single point]. Moreover, the AC50 under setting [1] was 2060 nM [falling, full curve]. Regarding `CN1CCN(C(=O)c2c(O)c3cccc4c3n(c2=O)CC4)CC1`, the cell number change amounted to 30.5%. For the same compound, the AC50 under setting [2] was 411 nM [rising, partial curve, poor fit]. For `CCN(Cc1cc2cccc(C)c2[nH]c1=O)C(=O)c1ccccc1OC`, the cell number change was 39.7%. Further, the AC50 under setting [2] is 4.61 nM [rising, full curve, poor fit]. Under setting [1], the AC50 is 9200 nM [rising, partial curve]. Turning to `O=C(c1cccnc1)N1CCN(S(=O)(=O)c2cccc(Cl)c2)CC1`, the cell number change is 21.5%. Also, the AC50 under setting [2] was 2060 nM [rising, full curve, poor fit]. Also, under setting [1], the AC50 is 2310 nM [rising, partial curve, poor fit]. Regarding `CC1CCCCC1NC(=O)c1ccc(S(=O)(=O)N2CCN(C)CC2)cc1` (stereo unspecified), the cell number change worked out at 10.1%. Also, under setting [1], the AC50 was 2910 nM [rising, full curve, poor fit].

On to `Cc1oc(-c2ccc(F)cc2)nc1CN1CCCC(C(=O)N2CCOCC2)C1` (stereo unspecified), for which the cell number change was 21%. For the same compound, under setting [1], the AC50 was 29100 nM [rising, single point].

Regarding `CNC(=O)c1ccc(OC2CSC2)cc1`, the AC50 under setting [1] was 103 nM [falling, full curve, poor fit]. Consider `COC(=O)c1cc(COc2ccc3oc(C)c(C(=O)OC)c3c2)c(C)o1`, for which the cell number change stood at 8.43%. The AC50 under setting [1] is 29100 nM [rising, single point]. As for `COc1ccccc1NC(=O)CN1CCN(CC(=O)Nc2cc(C)ccc2OC)CC1`, the cell number change is 8.33%. As for `CC1=C(C(=O)OCCNC(=O)c2ccccc2O)C(c2ccccc2[N+](=O)[O-])C(C(=O)OCC2CCCO2)=C(C)N1` (stereo unspecified), the cell number change was -48.5%. The AC50 under setting [2] was 32600 nM [falling, single point]. The AC50 under setting [1] was 25900 nM [falling, single point]. As to `COc1ccccc1NC(=O)C(C)OC(=O)CN1C(=O)C2CC=CCC2C1=O` (stereo unspecified), the cell number change was 31.6%.

For the compound `C[C@H]1COc2c(N3CCN(C)CC3)c(F)cc3c(=O)c(C(=O)O)cn1c23`, the cell number change was -32%. Further, the AC50 under setting [2] is 2310 nM [falling, full curve]. For the same compound, the half-maximal activity concentration (AC50) under setting [1] is 2310 nM [falling, full curve]. Turning to `CC1CCCN(S(=O)(=O)c2ccc(NC(=O)CN3C(=O)NC(C)(c4ccccc4)C3=O)cc2)C1` (stereo unspecified), the AC50 under setting [2] is 6510 nM [rising, single point].
